± gives the standard deviation of the averaged measurements. The effect of the compound repeats well; differences between the knockouts mostly do not.
Test system: ZR-75-1
Test: relative cell number vs DMSO control (72 h) (% of DMSO); higher = less growth inhibition (more cells)
Experimental: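 QMAP-Seq: a pool of 5 breast cancer cell lines (ZR-75-1, SKBR3, HCC-38, MDA-MB-231, BT-20), each carrying 12 doxycycline-inducible Cas9 sgRNA perturbations (11 knockouts plus non-targeting sgNT), was treated with compounds for 72 h at four 10-fold doses (10 nM-10 uM or 1 nM-1 uM range). Barcodes were amplified and sequenced, and cell number was interpolated from 293T spike-in standard curves. The result is expressed as % of the median of DMSO wells. Two biological replicates.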

[1] = sgRNA knockout: sgATF3, 1000 nM
[2] = sgRNA knockout: sgATF3, 10000 nM
[3] = sgRNA knockout: sgATF4, 1000 nM
[4] = sgRNA knockout: sgATF4, 10000 nM
[5] = sgRNA knockout: sgATF6, 1000 nM
[6] = sgRNA knockout: sgATF6, 10000 nM
[7] = sgRNA knockout: sgATG7, 1000 nM
[8] = sgRNA knockout: sgATG7, 10000 nM
[9] = sgRNA knockout: sgERN1, 1000 nM
[10] = sgRNA knockout: sgERN1, 10000 nM
[11] = sgRNA knockout: sgHSF2, 1000 nM
[12] = sgRNA knockout: sgHSF2, 10000 nM
[13] = sgRNA knockout: sgNFE2L2, 10 nM
[14] = sgRNA knockout: sgNFE2L2, 100 nM
[15] = sgRNA knockout: sgNFE2L2, 1000 nM
[16] = sgRNA knockout: sgNFE2L2, 10000 nM
[17] = sgRNA knockout: sgSLC35F2, 10 nM
[18] = sgRNA knockout: sgSLC35F2, 100 nM
[19] = sgRNA knockout: sgSLC35F2, 1000 nM
[20] = sgRNA knockout: sgSLC35F2, 10000 nM
[21] = sgRNA knockout: sgXBP1, 1000 nM
[22] = sgRNA knockout: sgXBP1, 10000 nM

Row | Structure (SMILES) | relative cell number (sgRNA knockout: sgATF3, 10 nM) | relative cell number (sgRNA knockout: sgATF3, 100 nM) | relative cell number [1] | relative cell number [2] | relative cell number (sgRNA knockout: sgATF4, 10 nM) | relative cell number (sgRNA knockout: sgATF4, 100 nM) | relative cell number [3] | relative cell number [4] | relative cell number (sgRNA knockout: sgATF6, 10 nM) | relative cell number (sgRNA knockout: sgATF6, 100 nM) | relative cell number [5] | relative cell number [6] | relative cell number (sgRNA knockout: sgATG7, 10 nM) | relative cell number (sgRNA knockout: sgATG7, 100 nM) | relative cell number [7] | relative cell number [8] | relative cell number (sgRNA knockout: sgERN1, 10 nM) | relative cell number (sgRNA knockout: sgERN1, 100 nM) | relative cell number [9] | relative cell number [10] | relative cell number (sgRNA knockout: sgHSF2, 10 nM) | relative cell number (sgRNA knockout: sgHSF2, 100 nM) | relative cell number [11] | relative cell number [12] | relative cell number [13] | relative cell number [14] | relative cell number [15] | relative cell number [16] | relative cell number [17] | relative cell number [18] | relative cell number [19] | relative cell number [20] | relative cell number (sgRNA knockout: sgXBP1, 10 nM) | relative cell number (sgRNA knockout: sgXBP1, 100 nM) | relative cell number [21] | relative cell number [22]
1 | CC(C)n1c(/C=C/C(O)CC(O)CC(=O)O)c(-c2ccc(F)cc2)c2ccccc21 (configuration not stated) [Fluvastatin] | 85.3 ± 17 | 61.6 ± 11 | 67.98 ± 0.28 | 65.3 ± 2.8 | 57.5 ± 3.4 | 81.2 ± 23 | 67.7 ± 31 | 65.8 ± 4.2 | 99.2 ± 23 | 91.4 ± 3.8 | 55.7 ± 3.9 | 89.5 ± 9.3 | 84.1 ± 30 | 71.1 ± 3.3 | 57.6 ± 1.9 | 47.8 ± 12 | 87.5 ± 12 | 77.4 ± 9.2 | 81.5 ± 43 | 75.5 ± 20 | 82 ± 5.2 | 95.2 ± 4.3 | 61.3 ± 13 | 68 ± 17 | 68 ± 2.6 | 63.9 ± 14 | 103 ± 22 | 81.5 ± 3.9 | 111 ± 38 | 49.2 ± 34 | 70.2 ± 17 | 57.1 ± 16 | 91.1 ± 4.2 | 70.1 ± 1.1 | 81.1 ± 20 | 79.1 ± 1.3
2 | C[C@]12CC[C@@H]3c4ccc(O)cc4C[C@@H](CCCCCCCCC[S+]([O-])CCCC(F)(F)C(F)(F)F)[C@H]3[C@@H]1CC[C@@H]2O (some centres not stated) [Fulvestrant] | 96.19 ± 0.38 | 54.1 ± 3.7 | 61 ± 3.4 | 60 ± 6.8 | 77.8 ± 11 | 61.1 ± 30 | 58.3 ± 33 | 77.4 ± 35 | 60.8 ± 12 | 74.2 ± 34 | 42.6 ± 18 | 40.3 ± 9.6 | 74.9 ± 6 | 47.5 ± 0.7 | 56 ± 9.9 | 81.93 ± 0.75 | 70 ± 8.1 | 56.3 ± 20 | 55.8 ± 1.5 | 73.7 ± 7.9 | 71.22 ± 0.42 | 74.1 ± 14 | 68 ± 28 | 69.1 ± 22 | 64.4 ± 28 | 64.4 ± 5.9 | 60.4 ± 15 | 58 ± 25 | 73.8 ± 23 | 70.8 ± 14 | 47.2 ± 12 | 58.5 ± 7.9 | 64.8 ± 22 | 71.8 ± 6.4 | 61.4 ± 9.6 | 62 ± 13
3 | OCCn1cc(-c2ccc3c(c2)CC/C3=N\O)c(-c2ccncc2)n1 [GDC0879] | 120 ± 6 | 102 ± 26 | 133 ± 32 | 138 ± 11 | 103 ± 46 | 118 ± 23 | 136 ± 22 | 164 ± 32 | 79.9 ± 17 | 77.5 ± 17 | 157 ± 44 | 120 ± 22 | 114 ± 29 | 84.7 ± 3.8 | 101 ± 52 | 130 ± 30 | 91.1 ± 1 | 139 ± 20 | 120 ± 13 | 115 ± 6 | 121.1 ± 0.8 | 118 ± 9.5 | 126 ± 14 | 106 ± 3.8 | 125 ± 42 | 145 ± 13 | 145 ± 2.3 | 145 ± 15 | 91.2 ± 23 | 116 ± 7.9 | 135.97 ± 0.09 | 88.3 ± 17 | 98.5 ± 24 | 119 ± 19 | 123 ± 11 | 110 ± 9.6
4 | CS(=O)(=O)N1CCN(Cc2cc3nc(-c4cccc5[nH]ncc45)nc(N4CCOCC4)c3s2)CC1 [GDC0941] | 108 ± 17 | 100 ± 49 | 48.9 ± 5 | 37.2 ± 4.9 | 118 ± 9.8 | 77.7 ± 1.2 | 49.9 ± 1.4 | 43.8 ± 22 | 81.6 ± 14 | 74.6 ± 30 | 49.6 ± 21 | 29.7 ± 3.9 | 76.6 ± 8.8 | 69.9 ± 3 | 48 ± 16 | 29.1 ± 9.6 | 104 ± 40 | 89.1 ± 29 | 58.5 ± 1.2 | 22 ± 4.1 | 80.7 ± 18 | 103 ± 29 | 53.7 ± 17 | 32.2 ± 4.8 | 97.9 ± 17 | 85.4 ± 26 | 59.2 ± 6.8 | 19.7 ± 11 | 87.2 ± 59 | 89.4 ± 1.3 | 68.2 ± 20 | 27.3 ± 4.2 | 87.6 ± 16 | 101 ± 14 | 50.7 ± 4.2 | 25.8 ± 4.3
5 | O=P1(NCCCl)OCCCN1CCCl (configuration not stated) [Ifosfamide] | 75.6 ± 2.1 | 94.8 ± 5.5 | 131 ± 7 | 85.4 ± 29 | 87.4 ± 0.91 | 108 ± 1.2 | 82.5 ± 18 | 92.4 ± 11 | 86.5 ± 7.6 | 76.8 ± 35 | 90.2 ± 20 | 88.7 ± 38 | 99.4 ± 33 | 77.6 ± 25 | 77.9 ± 30 | 88.2 ± 19 | 84.6 ± 4.2 | 98.1 ± 20 | 101 ± 22 | 97.3 ± 20 | 85.6 ± 3.9 | 93.9 ± 28 | 118 ± 18 | 87.2 ± 17 | 120 ± 31 | 118 ± 23 | 89.5 ± 45 | 78.2 ± 10 | 70.3 ± 43 | 108 ± 59 | 68 ± 8.1 | 92 ± 4.3 | 108 ± 10 | 99.7 ± 24 | 105 ± 2.5 | 85.1 ± 1.3
6 | CCn1c(=O)c2c(nc(/C=C/c3ccc(OC)c(OC)c3)n2C)n(CC)c1=O [Istradefylline] | 99.9 ± 2.1 | 122 ± 15 | 98.3 ± 22 | 139 ± 8.2 | 113 ± 39 | 104 ± 21 | 111 ± 13 | 119 ± 39 | 129 ± 60 | 132 ± 21 | 128 ± 59 | 110 ± 5.7 | 65 ± 24 | 116 ± 23 | 88.1 ± 2.2 | 108 ± 3.8 | 84.6 ± 23 | 84.7 ± 5.2 | 103 ± 30 | 123 ± 6.3 | 74.17 ± 0.24 | 92.1 ± 20 | 95.6 ± 15 | 111 ± 14 | 90.1 ± 2.8 | 117 ± 3.5 | 102 ± 28 | 107.8 ± 0.71 | 96.3 ± 39 | 108 ± 12 | 84.8 ± 42 | 69.5 ± 7.7 | 86.7 ± 14 | 96.2 ± 6.2 | 105 ± 9.5 | 103 ± 15
7 | Nc1nc(OCc2cc(Br)cs2)c2[nH]cnc2n1 [Lomeguatrib] | 89.3 ± 3.7 | 115 ± 3.2 | 108 ± 32 | 93.9 ± 14 | 97.7 ± 13 | 119 ± 34 | 124 ± 8.6 | 73.8 ± 8 | 129 ± 6.4 | 107 ± 20 | 145 ± 26 | 105 ± 63 | 120 ± 28 | 102 ± 6.5 | 112 ± 20 | 110.9 ± 0.61 | 91 ± 26 | 122 ± 19 | 89.9 ± 5 | 102 ± 37 | 108 ± 16 | 95.4 ± 1.4 | 84.3 ± 5 | 103 ± 2.1 | 110 ± 52 | 96 ± 7.5 | 96.6 ± 29 | 83.4 ± 12 | 90.2 ± 57 | 128 ± 46 | 74.5 ± 12 | 92.8 ± 1.7 | 102 ± 32 | 96.5 ± 15 | 82.2 ± 11 | 84.3 ± 2.9
